Laboratory results published in US5510332A (priority 1994, dated 1996).
For some assays here: Some peptides are written in HELM: one residue between dots, names in brackets for other building blocks, links after the first $. Where no end group is shown, it is not given here.

How the values were obtained:
[1] = general procedure: Fmoc solid-phase peptide synthesis; Rink resin; HBTU or DIC, HOBT if necessary; conditions: whole synthesis, scale 25 nM
[2] = general procedure: Fmoc solid-phase peptide synthesis; Wang resin (C-terminal acids); Rink resin (C-terminal amides); HBTU or DIC, HOBT if necessary; conditions: whole synthesis, analytical HPLC, scale of the general procedure 25 nM
[3] = general procedure: Fmoc solid-phase peptide synthesis; Wang resin; HBTU or DIC, HOBT if necessary; conditions: whole synthesis, scale 25 nM

Substance	isolated mass [1]	final HPLC purity [2]	crude mass [3]	isolated mass [3]
DPEWLDVPST-NH2	10.9 mg	>99% pure	–	–
PEPTIDE1{E.W.L.D.V}$$$$V2.0	–	>98% pure	12.2 mg	4.5 mg
